From doi:10.1101/2022.03.11.483779
These are yes or no findings as the source states them, for the method shown. Binding seen in cells or lysates may run through a third protein. A yes stands for co-enrichment or nearness to the bait. Other partners may have been found.

Target: Cbl (Casitas B-lineage lymphoma proto-oncogene) (human (endogenous in HeLa)) (UniProt P22681)
Assay: affinity purification with mass spectrometry

binding: binds
B1: Flotillin-2 (FLOT2) (protein, UniProt Q14254 1-428)
chain: MGNCHTVGPNEALVVSGGCCGSDYKQYVFGGWAWAWWCISDTQRISLEIMTLQPRCEDVETAEGVALTVTGVAQVKIMTEKELLAVACEQFLGKNVQDIKNVVLQTLEGHLRSILGTLTVEQIYQDRDQFAKLVREVAAPDVGRMGIEILSFTIKDVYDKVDYLSSLGKTQTAVVQRDADIGVAEAERDAGIREAECKKEMLDVKFMADTKIADSKRAFELQKSAFSEEVNIKTAEAQLAYELQGAREQQKIRQEEIEIEVVQRKKQIAVEAQEILRTDKELIATVRRPAEAEAHRIQQIAEGEKVKQVLLAQAEAEKIRKIGEAEAAVIEAMGKAEAERMKLKAEAYQKYGDAAKMALVLEALPQIAAKIAAPLTKVDEIVVLSGDNSKVTSEVNRLLAELPASVHALTGVDLSKIPLIKKATGVQV
